Reference: the supplement of paper PMC11006884
The list shows a part of the results, in another mix than the full data.

Each target was assayed with COC(=O)C#Cc1ccccc1 [methyl 3-phenylpropiolate] (assay: log2 ratio of iodoacetamide-alkyne labeling of the cysteine site, DMSO over compound (competition); higher = stronger covalent engagement of the cysteine by the compound, active = 1 or more). Conditions: 500 µM; treatment time 1 h; system: HEK293T cell lysate.
How it was run: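 After 1 h at ambient temperature with vehicle or electrophile (500 µM), HEK293T lysate (2 mg/mL) was labelled for 1 h with iodoacetamide alkyne and clicked to sCIP-TMT reagents. Pooled samples were trypsin-digested overnight at 37 °C, streptavidin-enriched, acid-eluted and analysed by Orbitrap Eclipse LC-MS/MS with FAIMS, then quantified in FragPipe over three replicates with duplicate channels. A cysteine's log2 competition ratio is its mean control-channel over mean compound-channel reporter intensity. Cysteines quantified in only one replicate were not included.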

log2 ratio of iodoacetamide-alkyne labeling, inactive:
UniProt P62701_C124 -0.122, PRR3 C176 (UniProt P79522) 0.0917, LSM11 C52 (UniProt P83369) 0.808, PFKP C112 (UniProt Q01813) 0.188, CNBP C77 (UniProt P62633) -0.178, CLTC C1528 (UniProt Q00610) 0.222, RPS27A C149 (UniProt P62979) 0.251, UniProt P62913_C25 0.573, CLTC C328 (UniProt Q00610) -0.0284, UniProt P83731_C6 0.668, DR1 C94 (UniProt Q01658) 0.311, SPTBN1 C112 (UniProt Q01082) 0.622, SPTBN1 C1900 (UniProt Q01082) 0.153, UniProt P62873_C25 0.0513, CLTC C459 (UniProt Q00610) 0.282, PPIA C115 (UniProt P62937) -0.00148, UniProt P62917_C114 0.25, YWHAZ C25 (UniProt P63104) -0.0172, MRPS21 C87 (UniProt P82921) 0.059, CLTC C918 (UniProt Q00610) 0.486, RPS21 C56 (UniProt P63220) 0.636, GNAS C174 (UniProt P63092) -0.492, SPTBN1 C964 (UniProt Q01082) 0.192, UniProt P63244_C286 0.382, HNRNPU C453 (UniProt Q00839) -0.0372, HMGCS1 C12 (UniProt Q01581) -0.00842, EEF1A1 C370 (UniProt P68104) 0.216, CLTC C617 (UniProt Q00610) 0.222, UniProt P78527_C1499 0.575, SPTBN1 C1389 (UniProt Q01082) -0.109, HNRNPU C607 (UniProt Q00839) 0.39, UniProt Q00341_C855 0.414, MRPS25 C149 (UniProt P82663) 0.0586, UniProt P83916_C156 0.0703, CNBP C57 (UniProt P62633) 0.0263, EWSR1 C543 (UniProt Q01844) -0.129, CLTC C666 (UniProt Q00610) -0.187
